Results are given as percent effect. The controls that fix the scale are not given in the record; negative values are as filed. The compounds are a random part of those screened. Two or more numbers in one place are separate tests of the same structure; such repeats can differ widely. A dash means the value is not listed here; it may have been measured.

Sequences of proteins named here, by UniProt entry; tags and fusion partners are left off. Residues count along the entry.
UniProt A4I591, 1-473: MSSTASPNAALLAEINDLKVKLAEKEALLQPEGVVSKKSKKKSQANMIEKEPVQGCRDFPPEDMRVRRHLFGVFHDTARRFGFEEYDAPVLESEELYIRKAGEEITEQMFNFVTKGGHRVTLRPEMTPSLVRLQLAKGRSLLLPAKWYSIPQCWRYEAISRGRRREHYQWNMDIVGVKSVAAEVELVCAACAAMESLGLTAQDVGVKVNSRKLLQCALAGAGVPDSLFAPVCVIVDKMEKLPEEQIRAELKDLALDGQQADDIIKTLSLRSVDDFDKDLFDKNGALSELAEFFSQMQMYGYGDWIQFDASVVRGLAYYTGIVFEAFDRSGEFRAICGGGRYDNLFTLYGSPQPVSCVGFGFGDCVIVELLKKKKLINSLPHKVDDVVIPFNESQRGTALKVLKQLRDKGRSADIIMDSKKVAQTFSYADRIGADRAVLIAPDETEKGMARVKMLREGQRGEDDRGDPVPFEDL
UniProt I6X8D2, whole entry: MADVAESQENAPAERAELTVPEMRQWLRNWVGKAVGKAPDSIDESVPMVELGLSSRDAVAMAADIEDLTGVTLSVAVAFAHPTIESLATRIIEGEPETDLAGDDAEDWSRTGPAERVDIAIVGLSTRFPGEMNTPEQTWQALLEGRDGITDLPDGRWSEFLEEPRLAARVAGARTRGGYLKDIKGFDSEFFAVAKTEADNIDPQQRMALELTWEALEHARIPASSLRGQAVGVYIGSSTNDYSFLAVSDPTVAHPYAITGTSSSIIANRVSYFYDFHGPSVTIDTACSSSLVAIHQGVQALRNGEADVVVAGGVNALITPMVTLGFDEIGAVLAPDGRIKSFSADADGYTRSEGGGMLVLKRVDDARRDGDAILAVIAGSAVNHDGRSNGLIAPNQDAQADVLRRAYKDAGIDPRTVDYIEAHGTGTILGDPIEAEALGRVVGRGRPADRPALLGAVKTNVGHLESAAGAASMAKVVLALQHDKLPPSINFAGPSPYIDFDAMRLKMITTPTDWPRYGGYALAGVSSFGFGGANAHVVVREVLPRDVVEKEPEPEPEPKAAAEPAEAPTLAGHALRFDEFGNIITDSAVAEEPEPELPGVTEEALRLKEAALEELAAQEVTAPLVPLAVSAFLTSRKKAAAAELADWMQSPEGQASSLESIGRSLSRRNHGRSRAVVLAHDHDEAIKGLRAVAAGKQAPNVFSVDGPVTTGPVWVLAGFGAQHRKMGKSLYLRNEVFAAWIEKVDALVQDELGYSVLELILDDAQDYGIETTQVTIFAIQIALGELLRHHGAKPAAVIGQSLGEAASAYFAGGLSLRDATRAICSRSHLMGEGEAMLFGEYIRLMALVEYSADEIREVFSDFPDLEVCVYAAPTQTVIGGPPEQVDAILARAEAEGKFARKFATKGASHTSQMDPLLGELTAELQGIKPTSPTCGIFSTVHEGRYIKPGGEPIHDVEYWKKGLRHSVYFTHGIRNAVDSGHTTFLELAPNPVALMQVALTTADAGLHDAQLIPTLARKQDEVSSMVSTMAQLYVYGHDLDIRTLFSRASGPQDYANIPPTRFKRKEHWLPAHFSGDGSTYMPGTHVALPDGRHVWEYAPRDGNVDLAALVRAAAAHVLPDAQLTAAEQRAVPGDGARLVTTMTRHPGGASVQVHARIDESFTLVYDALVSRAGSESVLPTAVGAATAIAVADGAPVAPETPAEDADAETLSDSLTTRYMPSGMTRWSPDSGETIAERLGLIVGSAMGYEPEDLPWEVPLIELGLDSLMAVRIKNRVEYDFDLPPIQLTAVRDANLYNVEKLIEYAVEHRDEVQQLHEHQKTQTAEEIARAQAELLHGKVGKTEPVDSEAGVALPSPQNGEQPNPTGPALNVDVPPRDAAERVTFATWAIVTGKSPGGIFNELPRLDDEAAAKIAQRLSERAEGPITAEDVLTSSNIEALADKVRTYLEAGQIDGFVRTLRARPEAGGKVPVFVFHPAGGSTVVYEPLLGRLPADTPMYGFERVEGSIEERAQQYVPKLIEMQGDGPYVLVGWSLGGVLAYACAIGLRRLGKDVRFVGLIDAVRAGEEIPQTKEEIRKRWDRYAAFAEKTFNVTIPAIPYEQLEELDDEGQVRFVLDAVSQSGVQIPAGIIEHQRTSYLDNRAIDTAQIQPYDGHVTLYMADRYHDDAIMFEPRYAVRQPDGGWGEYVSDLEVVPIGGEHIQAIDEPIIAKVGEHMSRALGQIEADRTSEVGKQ

A: 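Cell assay of Leishmania donovani living inside macrophages; the read-out is not stated. Tested at 30 µM. Direction is inferred from retests: higher values go with stronger inhibition. Size under these conditions: about 69,000 compounds, about 1,000 of them at 50% or above in at least one test.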
B: 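Histidine-tRNA ligase, Leishmania infantum (UniProt A4I591). Enzyme assay of histidyl-tRNA synthetase; the read-out is not stated. Compounds at 30 µM. Higher reads as stronger inhibition (inferred: compounds with an IC50 in retests scored well above the rest). The assay is labelled LdHisRS but filed under L. infantum. About 69,000 compounds were tested under these conditions; 0.6% (about 410) showed 50% or more at least once.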
C: 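Enzyme assay of the thioesterase domain of polyketide synthase 13; the read-out is not stated. Target: Polyketide synthase Pks13, Mycobacterium tuberculosis (UniProt I6X8D2). Concentration: 30 µM. The record gives no direction; the compounds picked for IC50 retests had high values, so higher reads as stronger inhibition. Size under these conditions: about 67,000 compounds, about 300 of them at 50% or above in at least one test.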

[H][C@@]12CN(C(=O)Nc3ccc(F)cc3)C[C@]1([H])OCC(=O)N2C gave A: 8.945%.
CC(C)CNC(=O)c1ccc2c(=O)n(-c3ccccc3)cnc2c1 gave A: 32.07%; B: 3.125%; C: -23%.
CN(Cc1nc(Cc2cccc(C(F)(F)F)c2)no1)C1CCOCC1 gave A: 2.846%; B: 1.399%; C: -2.994%.
O=C(O)C(F)(F)F.[H][C@@]12CCN(Cc3ccccc3)C[C@@]1([H])O[C@H](C(=O)NC1CC1)C2 gave A: 10.54%.
N#Cc1ccccc1C(=O)NCCC1CN(Cc2ccco2)CCO1 (configuration not stated) gave A: 33.18%; B: 22.45%; C: -3.118%.
Fc1ccc2[nH]c(C3CCCN3CCc3ccccn3)nc2c1 (configuration not stated) gave A: 50.9%; B: 17.14%; C: -28.51%.
CC(C)c1nc(CN(C)C2CCN(CCNS(C)(=O)=O)C2)no1 (configuration not stated) gave A: 13.71%; B: 6.25%; C: 93.51%.
O=C(CCCn1cncn1)N1CCCCC1c1nccs1 (configuration not stated) gave A: -21.02%; B: -5%; C: 5.005%.
CN1CCC(Cc2nc(-c3ccnn3C)n(Cc3ccccc3)n2)CC1 gave A: 14.51%; B: -5.714%; C: -2.221%.
CCN(CC1=CCN(C)CC1)C(=O)CCOC gave A: 8.1%; B: 24.71%; C: -4.99%.
Cn1cc(CNC(=O)c2cc3c(s2)CCCCC3)cn1 gave A: -0.1406%; B: 6.061%; C: -27.15%.
Cc1ccc(CNC(=O)CN(C)CC2CCN(CCO)CC2)s1 gave A: 14.43%; B: 4.301%; C: -10.83%.
Cc1cc2cccc(NC(=O)N3CC[C@@H]4CC[C@H](C3)N4C)c2o1 gave B: 5.747%; C: -10.45%.
Cc1cncc(C(=O)N2CC[C@@H]3[C@H]2CCC(=O)N3CCN(C)C)c1 gave B: 18.8%; C: -6.352%.
[H][C@@]12CN(c3ncc(C)cn3)C[C@]1(C(=O)NC)CCCN2c1ncccn1 gave A: 21.18% and 17.06%.
COC(=O)CN(Cc1ccccc1C)C(=O)CCCNC(=O)C1CC1 gave A: 8.172%; B: -5.263%; C: -5.517%.
c1ccc(C2CCCN2Cc2nc(-c3cnccn3)no2)nc1 (configuration not stated) gave A: 3.196%; B: 27.27%; C: -5.157%.
c1cnc(N2CCO[C@H]3CN(Cc4ccsc4)C[C@H]32)nc1 gave B: 23.53%; C: -5.372%.
CS(=O)(=O)CCCNC(=O)C1(c2cccc(Cl)c2)CC1 gave A: 7.176%; B: 10.2%; C: -17.36%.
Cc1cccnc1CN(C)C(C(=O)O)c1ccc(-n2cccn2)cc1 (configuration not stated) gave A: 33.81%; B: 17.46%; C: -17.58%.
Cc1cc(CN(C)C(=O)C2CCCN(C(=O)c3ccc(Cl)cc3)C2)no1 (configuration not stated) gave A: 20.11%; B: 6.604%; C: -0.8632%.
Cc1cn2c(n1)CCC(NC(=O)c1ccc(CS(C)(=O)=O)o1)C2 (configuration not stated) gave A: 8.652%; B: 39.2%; C: -13.02%.
Cc1nccn1CCCn1c(=O)cnc2ccccc21 gave A: 38.35%; B: 7.792%; C: 3.946%.
Cn1ncc2c1CN(Cc1cccnc1)CC2COCC1CC1.O=C(O)C(F)(F)F.O=C(O)C(F)(F)F.O=C(O)C(F)(F)F (configuration not stated) gave A: 26.28%.
Cn1cnc2c1CCN(Cc1ccc(C(=O)N3CCCC3)cc1)C2 gave A: 22.28%; B: 23.4%; C: -15.04%.
Cc1ncsc1CN1CC[C@H]2OCC[C@@]2(C(=O)N2CCCO2)C1 gave B: 16.81%; C: 26.92%.
Cc1cc(I)cnc1NC(=O)C(C)(C)C gave A: -8.666%; B: 24.66%; C: 9.997%.
CC1CCCN(C(=O)NCCCn2cncn2)C1 (configuration not stated) gave A: 18.84%; B: 19.64%; C: -9.253%.
Cc1cnn(C2CN(Cc3nc(-c4ccco4)no3)C2)c1 gave A: -5.982%; B: 13.7%; C: -3.417%.
COc1cc(C)nc(N2CCN(C(=O)CCc3ccco3)CC2)n1 gave A: 19.51%; B: 16.13%; C: 29.09%.
c1cncc(N2CCOCC3(CCCN(c4nncs4)C3)C2)c1 (configuration not stated) gave B: 15.69%; C: -8.878%.
[H][C@]12CC[C@]([H])(CN(Cc3cc(-c4ccccc4)no3)C1)N(CC1CC1)C2 gave A: 6.516%.
COc1cccc(CN(C)Cc2ccccc2C#N)c1OC gave A: 23.67%; B: 3.03%; C: -14.89%.

The first 2 entries again:

compound	A	B	C
[H][C@@]12CN(C(=O)Nc3ccc(F)cc3)C[C@]1([H])OCC(=O)N2C	8.945	-	-
CC(C)CNC(=O)c1ccc2c(=O)n(-c3ccccc3)cnc2c1	32.07	3.125	-23

Data taken from ChEMBL document CHEMBL3988442, “University of Dundee, Small-Polar-MMV Screening Library” (2021).